Drawing on patent publication EP1897948A1 (ZymoGenetics, Inc., dated 2008), this text covers binding for 1 molecule.

This assay deals with T1, untagged human Zcyto7 (human) (UniProt Q9UHF5).
T1 sequence (looked up): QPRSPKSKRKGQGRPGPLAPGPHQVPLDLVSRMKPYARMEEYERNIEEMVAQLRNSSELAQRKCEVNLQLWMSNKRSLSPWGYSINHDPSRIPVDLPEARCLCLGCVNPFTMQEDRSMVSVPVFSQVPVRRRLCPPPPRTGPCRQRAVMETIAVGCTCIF
Briefly: co-expression, then anti-EE affinity co-purification.

These are yes or no findings as the source states them, for the method shown. Binding seen in cells or lysates may run through a third protein. Some entries that bind do so weakly or less than the wild type. Tags and fused reporters may be left off the sequences shown.

B1: Human Ztgfβ-9 protein (ligand)
chain: AGAPRAGRRPARPRGCADRPEELLEQLYGRLAAGVLSAFHHTLQLGPREQARNASCPAGGRPADRRFRPPTNLRSVSPWAYRISYDPARYPRYLPEAYCLCRGCLTGLFGEEDVRFRSAPVYMPTVVLRRTPACAGGRSVYTEAYVTIPVGCTCVPEPEKDADSINSSIDKQGAKLLLGPNDAPAGP
notes: Expressed in BHK cells without a tag and secreted into the medium; also called transforming growth factor beta-9
For the molecule B1, the binding result is reported as “binds”.
